Results as given in article doi:10.1101/2020.09.12.286559 (bioRxiv, 2020).
Results are given in words; binding and its absence hold for the method and conditions named. Sequences can lack the tags named with a protein.

B1: N-terminal HA-tagged TIN2S (HA-TIN2S, 1-354 aa) (protein, UniProt Q9BSI4-2 1-354)
chain: MATPLVAGPAALRFAAAASWQVVRGRCVEHFPRVLEFLRSLRAVAPGLVRYRHHERLCMGLKAKVVVELILQGRPWAQVLKALNHHFPESGPIVRDPKATKQDLRKILEAQETFYQQVKQLSEAPVDLASKLQELEQEYGEPFLAAMEKLLFEYLCQLEKALPTPQAQQLQDVLSWMQPGVSITSSLAWRQYGVDMGWLLPECSVTDSVNLAEPMEQNPPQQQRLALHNPLPKAKPGTHLPQGPSSRTHPEPLAGRHFNLAPLGRRRVQSQWASTRGGHKERPTVMLFPFRNLGSPTQVISKPESKEEHAIYTADLAMGTRAASTGKSKSPCQTLGGRALKENPVDLPATEQKE
B2: N-terminal HA-tagged TIN2L (HA-TIN2L, 1-451 aa) (protein, UniProt Q9BSI4-1 1-451)
chain: MATPLVAGPAALRFAAAASWQVVRGRCVEHFPRVLEFLRSLRAVAPGLVRYRHHERLCMGLKAKVVVELILQGRPWAQVLKALNHHFPESGPIVRDPKATKQDLRKILEAQETFYQQVKQLSEAPVDLASKLQELEQEYGEPFLAAMEKLLFEYLCQLEKALPTPQAQQLQDVLSWMQPGVSITSSLAWRQYGVDMGWLLPECSVTDSVNLAEPMEQNPPQQQRLALHNPLPKAKPGTHLPQGPSSRTHPEPLAGRHFNLAPLGRRRVQSQWASTRGGHKERPTVMLFPFRNLGSPTQVISKPESKEEHAIYTADLAMGTRAASTGKSKSPCQTLGGRALKENPVDLPATEQKENCLDCYMDPLRLSLLPPRARKPVCPPSLCSSVITIGDLVLDSDEEENGQGEGKESLENYQKTKFDTLIPTLCEYLPPSGHGAIPVSSCDCRDSSRPL

Experiments:
[1] = target: N-terminal HA-tagged TIN2S (HA-TIN2S, 1-354 aa) (human) (UniProt Q9BSI4); test: AFM volume analysis
[2] = target: N-terminal HA-tagged TIN2L (HA-TIN2L, 1-451 aa) (human) (UniProt Q9BSI4); test: AFM volume analysis

Binder | binding [1] | binding [2]
B1 | no binding | –
B2 | – | no binding
